Data from paper PMC5483248, “The LacI family protein GlyR3 co-regulates the celC operon and manB in Clostridium thermocellum” (Biotechnology for Biofuels, 2017).
The exact form of at least one protein or probe is not confirmed. Tags and fusion partners may be left off the protein sequences shown.

Biological target: T1, GlyR3 (Clostridium thermocellum) (UniProt Q9AL35)
T1 sequence (looked up, limits assumed): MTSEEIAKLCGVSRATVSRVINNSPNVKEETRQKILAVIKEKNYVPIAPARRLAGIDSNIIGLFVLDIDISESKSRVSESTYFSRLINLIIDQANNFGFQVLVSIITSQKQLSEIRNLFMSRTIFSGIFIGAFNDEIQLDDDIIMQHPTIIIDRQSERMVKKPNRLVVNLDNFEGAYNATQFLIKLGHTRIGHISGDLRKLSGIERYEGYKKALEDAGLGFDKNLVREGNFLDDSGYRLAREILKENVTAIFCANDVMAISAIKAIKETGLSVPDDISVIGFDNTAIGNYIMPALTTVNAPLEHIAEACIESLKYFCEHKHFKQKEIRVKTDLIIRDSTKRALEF
Assay: EMSA
Details: LightShift Chemiluminescent EMSA kit, TBE gel, 0.2 ng biotin-DNA (0.156-0.204 nM), GlyR3 150 ng (387 nM) unless titrated, binding buffer salt, recombinant protein, protein details: expressed from pTXB1 (IMPACT intein system, NEB), label: 5'-biotin on forward primer, probe letters rebuilt from the primers and the genome

Work on “CCGAATAAAAACTGGACAGAGAAGAAGAAAACGTGATATAATTAAATTAGAATGAACGCGCGTACATTATTGAATAATCCAGTGTTAAATGGTTTCAGTTTACGATTTCAAATGTTTATATCCAATTTACATTTAAAAACATACAAAACATCAAAAGTATTTAATACCAATATTTAAAACACAATATTTCAGGAGGA (double strand) [celC EMSA fragment]” yielded a binding signal (387 nM GlyR3, 50 mM laminaribiose) of 82 % shifted and a binding signal (387 nM GlyR3, 100 mM laminaribiose) of 67 % shifted.
